Experimental data reported in patent publication US20110065632A1 (priority 2008, published 2011).

Assay: general procedure: Fmoc solid-phase peptide synthesis; Rink Amide MBHA; DIC/HOBt (double coupling); PyBrop/HOAT/pentafluorophenol/DMAP/DIEA for Dop2-OH
Settings: whole synthesis, analytical HPLC, scale 50 umol

Substance: Dop2-DLys (Dop2)-cyclo[Cys-Tyr-DTrp-Lys-Abu-Cys]-Thr-NH2
- final HPLC purity: 99.99%
